# In US9919941B2, “Multiple uses of amine salts for industrial water treatment” (AMSA, Inc., priority 2012, dated 2018):
# What was measured:
# [1] = mild steel corrosion inhibition, ASTM G31-72 coupon weight loss
# Description: (§1) Corrosion inhibition studies of various compounds of Formula (I) were conducted according to ASTM method G31-72 (2004). The following is the general test method.
# (§2) Aqueous solutions of the test compound (900 mL) were prepared with city water for mild steel corrosion studies or a dilute sea salt solution (1000 ppm in deionized water) for copper corrosion studies. The solutions were magnetically stirred at a constant rate in a 1 L beaker and three coupons of either mild steel or copper were suspended in each beaker. After 5 days (steel) or 7 days (copper), the coupons were removed and cleaned according to ASTM method G1-03. Average weight loss was determined for each set of three coupons and then converted to corrosion rate in terms of mils per year (mpy).
# These tests compare the corrosion inhibition of compounds of Formula (I), namely from Table 1, in the first set of comparisons, Compound A with Compound 13, and Compound B with Compound 1, and with 2-hydroxypropane-1,2,3-tricarboxylic acid. Thus five samples were tested relative to a blank and a standard, (1-hydroxyethan-1,1-diyl)bis(phosphonic acid), after 5 days at 26 μM concentrations. […] Concentrations were 26 μM.
# Additional mild steel corrosion tests were performed at 130 μM concentration of compounds of Formula (I) and comparative compounds for 5 days. The next test compared the corrosion inhibition of Compound 8 with 2,3-dihydroxybutanedioic acid and Compound B, and Compound 4 with (1-hydroxyethan-1,1-diyl)bis(phosphonic acid) and Compound B. Also included was Compound 1 for reference. Concentrations in this set were 130 μM.
# [2] = copper corrosion inhibition, ASTM G31-72 coupon weight loss
# Description: as §1, §2
# The first test of copper corrosion inhibition compared Compound A with Compound 13 (from Table 1), 2-hydroxypropane-1,2,3-tricarboxylic acid, and a commercial inhibitor, Na-TAI.
# [3] = 5 days, 130 μM, Table 4 (blank 24 mpy)
# [4] = 130 μM, Table 5 (blank 12.5 mpy)
Compound,"Corrosion rate [1, 3]","Corrosion rate ([1]; 5 days, 26 μM, Table 3)","Corrosion rate ([2]; 42 μM, Table 7)","Corrosion rate ([2]; 7 days, 17 μM, Table 6)","Corrosion rate [1, 4]"
"O=C(O)C(O)C(O)C(=O)O (stereo not shown) [2,3-Dihydroxybutanedioic acid]",20 mpy,,,,
"O=C(O)CC(O)(CC(=O)O)C(=O)O [2-hydroxypropane-1,2,3-tricarboxylic acid]",,22 mpy,1.4 mpy,1.7 mpy,
"CC(O)(P(=O)(O)O)P(=O)(O)O [(1-hydroxyethan-1,1-diyl)bis(phosphonic acid)]",9.3 mpy,16 mpy,,,
"CCCCCCCCCCOCCCN.O=C(O)CC(O)(CC(=O)O)C(=O)O [Compound 1, 2-hydroxypropane-1,2,3-tricarboxylic acid salt of aminopropyloxydecane]",2.9 mpy,10 mpy,0.70 mpy,,1.6 mpy
"CC(O)(P(=O)(O)O)P(=O)(O)O.CCCCCCCCCCOCCCN [Compound 4, Salt of Oxyamine (II) and (1-Hydroxyethan-1,1-diyl)bis(phosphonic acid) (1:1 Molar Stoichiometry)]",7.7 mpy,,,,
"CCCCCCCCCCSCCN.Cl [Compound A, 2-(decylthio)ethanamine hydrochloride]",,24 mpy,,1.0 mpy,
"CC(=O)O.CCCCCCCCCCOCCCN [Compound B, ethanoic acid salt of aminopropyloxydecane]",25 mpy,24 mpy,1.0 mpy,,12.7 mpy
O=C(O)C(=O)O [Ethanedioic acid],,,,,14.5 mpy
"[Na+].c1ccc2[n-]nnc2c1 [Na-TAI, sodium salt of 1,2,3-triaza-1H-indene]",,,,0.5 mpy,
O=P(O)(O)O [Trihydroxidooxidophosphorus],,,,,7.4 mpy
"Salt of Oxyamine (II) and 2,3-Dihydroxybutanedioic acid salt (1:1 molar stoichiometry) [Compound 8]",14 mpy,,,,
Salt of Oxyamine (II) and Trihydroxidooxidophosphorus salt (1:1 molar stoichiometry) [Compound 3],,,,,5.6 mpy
